The test concerns the target human LGR4 (leucine-rich repeat-containing G-protein coupled receptor 4) (human) (UniProt Q9BXB1). As to the kind of experiment: co-internalisation in A549 cells, microscopy.

Protein sequences, listed by entry. Tags and fused reporters are not part of them. Residues count along the entry.
UniProt Q9BXB1, residues 25-951: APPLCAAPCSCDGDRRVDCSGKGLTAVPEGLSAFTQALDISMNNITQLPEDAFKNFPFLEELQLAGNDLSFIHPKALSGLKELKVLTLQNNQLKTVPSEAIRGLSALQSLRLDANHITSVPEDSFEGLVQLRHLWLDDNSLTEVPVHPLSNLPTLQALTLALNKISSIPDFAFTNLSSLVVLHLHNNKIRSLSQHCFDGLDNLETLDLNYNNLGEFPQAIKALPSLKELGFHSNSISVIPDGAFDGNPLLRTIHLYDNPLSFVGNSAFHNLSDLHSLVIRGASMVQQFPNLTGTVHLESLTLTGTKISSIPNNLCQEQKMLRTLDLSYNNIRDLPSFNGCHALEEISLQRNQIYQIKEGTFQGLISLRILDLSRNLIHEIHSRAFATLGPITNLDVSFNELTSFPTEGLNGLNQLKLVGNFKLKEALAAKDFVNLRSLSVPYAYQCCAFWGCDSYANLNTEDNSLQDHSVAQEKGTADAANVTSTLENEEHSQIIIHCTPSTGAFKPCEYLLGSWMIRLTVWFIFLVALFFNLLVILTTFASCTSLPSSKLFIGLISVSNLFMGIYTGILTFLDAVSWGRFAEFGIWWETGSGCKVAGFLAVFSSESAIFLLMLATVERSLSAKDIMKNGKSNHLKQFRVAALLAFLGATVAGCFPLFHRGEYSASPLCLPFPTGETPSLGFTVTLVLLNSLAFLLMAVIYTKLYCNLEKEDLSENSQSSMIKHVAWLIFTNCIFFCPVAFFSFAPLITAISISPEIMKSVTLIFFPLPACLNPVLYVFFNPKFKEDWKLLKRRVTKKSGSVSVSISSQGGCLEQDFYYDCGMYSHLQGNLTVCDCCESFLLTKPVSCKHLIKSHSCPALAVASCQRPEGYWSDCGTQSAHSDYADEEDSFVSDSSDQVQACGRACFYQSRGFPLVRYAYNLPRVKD
UniProt Q2MKA7, residues 21-263: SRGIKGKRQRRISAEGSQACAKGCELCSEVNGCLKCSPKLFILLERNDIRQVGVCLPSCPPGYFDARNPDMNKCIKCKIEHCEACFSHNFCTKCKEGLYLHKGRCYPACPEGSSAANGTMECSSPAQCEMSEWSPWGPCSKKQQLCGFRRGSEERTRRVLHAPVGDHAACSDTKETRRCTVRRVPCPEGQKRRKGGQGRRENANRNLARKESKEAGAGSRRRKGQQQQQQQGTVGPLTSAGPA

Results are given in words; binding and its absence hold for the method and conditions named. Some binding calls cover weakened binding; strength is not graded here.

Consider “RSPO1-Fc (from UniProt Q2MKA7 21-263) (Fc fusion)”, for which the binding result is recorded as “binds”.

The values above are taken from patent US20180369403A1 (University of Texas, published 2018).
